Several values for one entry are separate records, joined by “and”; a condition that tells them apart may be missing. Equal values may be shown once. Out of some 580,000 compounds screened, about 6,100 (1.1%) were called active. The inconclusive results got no clear call from the source; some entries with a clear call stand among them for comparison. Calls come from the whole dose curve; as a rule, active = well fitted inhibition curve with a large enough effect; inconclusive = small, poorly fitted or top-dose-only effect, or another doubt; inactive = no such curve, though single readings can be large or run the other way. A potency beside an inconclusive call is a rough fit, not a confirmed value.
The compounds below were run against Polyunsaturated fatty acid lipoxygenase ALOX12 (Homo sapiens) (UniProt P18054) (assay: Primary qHTS assay for inhibitors of human arachidonate 12S-lipoxygenase (ALOX12): Round 2). Details: purified 12hLO, xylenol orange hydroperoxide absorbance; series mostly up to 108 µM.
In short: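 Purified human 12hLO at 150 nM in 25 mM Hepes, 0.01% Triton X-100, pH 7.0, preincubated 15 min at room temperature with compound. Reaction started with 40 uM arachidonic acid, 30 min at room temperature. Hydroperoxide measured by Fe-xylenol orange, 573/405 nm absorbance ratio.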
Potency is the fitted concentration of half-maximal effect.

By UniProt entry, the sequences of proteins in these tests, tags left out.
UniProt P18054, whole entry, looked up: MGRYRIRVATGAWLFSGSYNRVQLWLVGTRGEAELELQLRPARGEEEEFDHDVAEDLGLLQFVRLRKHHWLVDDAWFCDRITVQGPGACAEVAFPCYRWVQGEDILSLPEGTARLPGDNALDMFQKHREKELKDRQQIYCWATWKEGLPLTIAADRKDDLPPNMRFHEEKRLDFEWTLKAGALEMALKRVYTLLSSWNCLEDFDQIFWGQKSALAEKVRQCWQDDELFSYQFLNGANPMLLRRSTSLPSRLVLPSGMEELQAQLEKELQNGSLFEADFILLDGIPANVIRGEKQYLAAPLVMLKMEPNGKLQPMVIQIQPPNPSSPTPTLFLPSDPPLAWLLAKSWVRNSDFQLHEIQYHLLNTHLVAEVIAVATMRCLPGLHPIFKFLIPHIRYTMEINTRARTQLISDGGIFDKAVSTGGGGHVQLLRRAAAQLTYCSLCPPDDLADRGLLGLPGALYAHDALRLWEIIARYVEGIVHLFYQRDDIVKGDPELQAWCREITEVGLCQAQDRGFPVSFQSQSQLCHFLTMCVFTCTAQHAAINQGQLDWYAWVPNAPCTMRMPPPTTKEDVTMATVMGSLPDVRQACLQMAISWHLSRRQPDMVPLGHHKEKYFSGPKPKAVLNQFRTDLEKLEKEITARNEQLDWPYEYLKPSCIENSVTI

Row | SMILES | Potency
1 | Cn1nc(C(=O)N(C2CC2)C2CCCc3ccccc32)c2ccccc2c1=O (configuration not stated) | inactive
2 | Cc1ccc(-c2cc(O)c3c(c2)CNCCO3)s1 | inconclusive: 8.91 µM [inhibitor, full curve]
3 | Nc1nc(N)c2cc(Sc3cccc(C(F)(F)F)c3)ccc2n1 | inconclusive: 44.7 µM [inhibitor, partial curve, poor fit]
4 | CCn1nnc(NCc2ccc(Cl)cc2Cl)n1 | inconclusive: 89.1 µM [inhibitor, partial curve, poor fit]
5 | COc1ccc(Nc2ccc3nnc(-c4ccccc4Cl)n3n2)cc1 | inconclusive: 44.7 µM [inhibitor, partial curve, poor fit]
6 | O=C1CCN(S(=O)(=O)c2ccccc2)CCCN(Cc2ccccc2)CCN1 | inactive
7 | O=C(NCc1nc2ccccc2[nH]1)C1=C[C@@H](c2ccccc2)C[C@@H](OCCCCO)O1 | inactive
8 | CN(C)C(=O)c1nc(-c2ccc(F)cc2)c2cnccn12 | inactive
9 | COc1ccc2c(c1)c(=O)oc1cc(OCC(=O)N3CCc4ccccc4C3)ccc12 | inconclusive: 20 µM [inhibitor, partial curve, poor fit]
10 | O=C1NC2(CCN(CC3CCCCC3)C2)OCc2ccccc21 (configuration not stated) | inconclusive: 35.5 µM [inhibitor, partial curve, poor fit]
11 | Cc1cc(OCc2cc(C(=O)N(C)C3CCOCC3)no2)cc(C)c1Cl | inconclusive: 112 µM [inhibitor, single point]
12 | Cn1nc(C(=O)NCCc2cccs2)c2ccccc2c1=O | inactive
13 | COc1ccc(NC(=S)NCC2CCN(c3ccc(OC)cc3)C2)cc1 (configuration not stated) | inconclusive: 44.7 µM [inhibitor, partial curve, poor fit]
14 | O=C(CCC(=O)Nc1ccc(Br)cc1)N/N=C/c1cc([N+](=O)[O-])ccc1O | inconclusive: 14.1 µM [inhibitor, partial curve, poor fit]
15 | COc1ccc(OC)c(CC2C(=O)Nc3ccc(Br)cc32)c1 (configuration not stated) | inconclusive: 56.2 µM [inhibitor, partial curve, poor fit] and inconclusive: 63.1 µM [inhibitor, partial curve, poor fit]
16 | Cc1cc(NC(=O)CN2C(=O)NC(c3ccccc3Cl)C3=C2COC3=O)ccc1Br (configuration not stated) | inconclusive: 10 µM [inhibitor, full curve]
17 | O=C(c1ccc(F)cc1)N1CCC2(CC1)CCN(Cc1cccs1)c1ccccc1O2 | inconclusive: 89.1 µM [inhibitor, single point]
18 | C[C@H](CCC(=O)O)[C@H]1CC[C@H]2[C@@H]3[C@H](O)C[C@@H]4C[C@H](O)CC[C@]4(C)[C@@H]3CC[C@]12C | inconclusive: 6.85 µM [inhibitor, partial curve, poor fit]
19 | Cc1cc(N2CCN(c3cc(Cl)ccc3C)CC2)n2nc(-c3ccccc3)nc2n1 | inactive
20 | Cc1cc(F)ccc1S(=O)(=O)Nc1cc2c(C(=O)O)c(C)oc2c2ccccc12 | inconclusive: 141 µM [inhibitor, single point]
21 | O=C(O)C(Cc1ccccc1)N1C(=O)/C(=C/c2ccccc2)SC1=S (configuration not stated) | inconclusive: 70.8 µM [inhibitor, partial curve, poor fit]

A few values from the results shown:
Entry of `CN(C)C(=O)c1nc(-c2ccc(F)cc2)c2cnccn12` under Potency: inactive
Entry of `CCn1nnc(NCc2ccc(Cl)cc2Cl)n1` under Potency: inconclusive: 89.1 µM [inhibitor, partial curve, poor fit]

(listing goes on)

Row | SMILES | Potency
22 | COc1cc(S(=O)(=O)N2CCOCC2)ccc1F | inconclusive: 10 µM [inhibitor, partial curve, poor fit]
23 | COc1ccc(Cl)cc1NC(=O)CCC1CCCN(C(=O)CCCn2cncn2)C1 (configuration not stated) | inconclusive: 100 µM [inhibitor, partial curve, poor fit]
24 | Cc1nnc(SC(C)C(=O)Nc2ccc(Cl)cn2)n1Cc1ccccc1 (configuration not stated) | inactive
25 | CCCOC(=S)NC(=O)c1sc2ccccc2c1Cl | inactive
26 | CC[C@H](C)[C@@H](COC=O)NC(=O)[C@H]1O[C@@H](n2ccc(N)nc2=O)[C@H](O)[C@@H]1O | inconclusive: 44.7 µM [inhibitor, partial curve]
27 | O=C(NCCN1CCOC1=O)c1cn(CCC2CCCCN2)nn1 (configuration not stated) | inactive
28 | CCN(C(=O)COC(=O)c1cc(=O)[nH]c2ccccc12)c1c(N)n(Cc2ccccc2)c(=O)[nH]c1=O | inactive
29 | CNc1ccccc(C(=O)/C=C/c2ccccc2OC)c1=O | inconclusive: 5.62 µM [inhibitor, full curve, poor fit]
30 | COC(=O)c1[nH]c(C)c(/C(O)=C2\C(=O)C(=O)N(CCCn3ccnc3)C2c2ccncc2)c1C (configuration not stated) | inconclusive: 3.55 µM [inhibitor, full curve]
31 | CC(=O)Nc1ccc(C(=O)CSc2ccccc2Cl)cc1 | inconclusive: 39.8 µM [inhibitor, partial curve, poor fit]
32 | CCN(CC)CCN1C(=O)C2C(C(=O)Nc3cccc(C)c3)C3C=CC2(O3)C1C(=O)NC1CCCC(C)C1C (configuration not stated) | inconclusive: 79.4 µM [inhibitor, partial curve, poor fit]
33 | CCOC(=O)C1CCCN(C(=O)c2cc(Nc3ccc(OC)cc3OC)nc3ccccc23)C1 (configuration not stated) | inconclusive: 39.8 µM [inhibitor, single point]
34 | CCCN(CC1CCOC1)S(=O)(=O)c1ccc(OC)c(Cl)c1 (configuration not stated) | inactive
35 | O=C1NCCOC(=O)[C@H](Cc2ccc(F)cc2)C/C=C\C[C@@H]1CC(=O)N(CCO)Cc1ccccc1 | inconclusive: 100 µM [inhibitor, single point]
36 | CSCCC(NC(=O)c1ccco1)C(=O)NCC1CCCCC1 (configuration not stated) | inactive
37 | COc1ccc(CNC(C)C)c2ccccc12 | inconclusive: 0.501 µM [inhibitor, full curve, poor fit]
38 | NC1=NC[C@H](c2ccccc2)N1CCCCC1CCCCC1 | inconclusive: 89.1 µM [inhibitor, partial curve, poor fit]
39 | COc1cccc(CNC(=O)Cn2cccc2-c2nc(-c3ccc(OC)c(F)c3)no2)c1 | inconclusive: 89.1 µM [inhibitor, single point]
40 | CC1=C(C(=O)OC(C)C)C(c2cccc([N+](=O)[O-])c2)n2c(cc(=O)[nH]c2=S)N1 (configuration not stated) | inconclusive: 5.62 µM [inhibitor, full curve, poor fit]
41 | CC(C)COc1ccc(C(=O)Nc2ccc3oc(=O)ccc3c2)cc1 | inactive
42 | C/C=C\C=C\C(=O)N1CC2(CC(c3cccc(NC(=O)COc4ccc(Cl)cc4)c3)=NO2)C[C@H]1C(N)=O (some centres not stated) | inconclusive: 31.6 µM [inhibitor, partial curve]

Rewritten as tab-separated lines: entries from further up.
Row	SMILES	Potency
3	Nc1nc(N)c2cc(Sc3cccc(C(F)(F)F)c3)ccc2n1	inconclusive: 44.7 µM [inhibitor, partial curve, poor fit]
4	CCn1nnc(NCc2ccc(Cl)cc2Cl)n1	inconclusive: 89.1 µM [inhibitor, partial curve, poor fit]
7	O=C(NCc1nc2ccccc2[nH]1)C1=C[C@@H](c2ccccc2)C[C@@H](OCCCCO)O1	inactive
9	COc1ccc2c(c1)c(=O)oc1cc(OCC(=O)N3CCc4ccccc4C3)ccc12	inconclusive: 20 µM [inhibitor, partial curve, poor fit]
16	Cc1cc(NC(=O)CN2C(=O)NC(c3ccccc3Cl)C3=C2COC3=O)ccc1Br (configuration not stated)	inconclusive: 10 µM [inhibitor, full curve]
19	Cc1cc(N2CCN(c3cc(Cl)ccc3C)CC2)n2nc(-c3ccccc3)nc2n1	inactive
22	COc1cc(S(=O)(=O)N2CCOCC2)ccc1F	inconclusive: 10 µM [inhibitor, partial curve, poor fit]
24	Cc1nnc(SC(C)C(=O)Nc2ccc(Cl)cn2)n1Cc1ccccc1 (configuration not stated)	inactive
27	O=C(NCCN1CCOC1=O)c1cn(CCC2CCCCN2)nn1 (configuration not stated)	inactive
28	CCN(C(=O)COC(=O)c1cc(=O)[nH]c2ccccc12)c1c(N)n(Cc2ccccc2)c(=O)[nH]c1=O	inactive
31	CC(=O)Nc1ccc(C(=O)CSc2ccccc2Cl)cc1	inconclusive: 39.8 µM [inhibitor, partial curve, poor fit]
33	CCOC(=O)C1CCCN(C(=O)c2cc(Nc3ccc(OC)cc3OC)nc3ccccc23)C1 (configuration not stated)	inconclusive: 39.8 µM [inhibitor, single point]
37	COc1ccc(CNC(C)C)c2ccccc12	inconclusive: 0.501 µM [inhibitor, full curve, poor fit]
38	NC1=NC[C@H](c2ccccc2)N1CCCCC1CCCCC1	inconclusive: 89.1 µM [inhibitor, partial curve, poor fit]
39	COc1cccc(CNC(=O)Cn2cccc2-c2nc(-c3ccc(OC)c(F)c3)no2)c1	inconclusive: 89.1 µM [inhibitor, single point]

Remaining list, next part.

Row | SMILES | Potency
43 | N#Cc1ccc(CN2CCN(C(=O)c3ccc(Cn4nnc5ccccc54)cc3)CC2)cc1 | inconclusive: 0.355 µM [inhibitor, full curve, poor fit]
44 | O=C(NC1CCN(Cc2ccccc2)CC1)c1ccc(Cn2c(=O)c3ccccc3n(Cc3cccc(F)c3)c2=O)cc1 | inconclusive: 126 µM [inhibitor, partial curve, poor fit]
45 | CCOC(=O)CN1C(=O)N[C@@H](c2cccs2)C(C(=O)OC)=C1C | inconclusive: 89.1 µM [inhibitor, partial curve, poor fit]
46 | NC(=O)c1ccc(NC(=O)c2cncn2-c2ccccc2)cc1 | inconclusive: 14.1 µM [inhibitor, partial curve, poor fit]
47 | Cc1cccc(C)c1-n1ncc(C(=O)NCCN2CCN(C)CC2)c1C1CCN(C(=O)OC(C)(C)C)CC1 | inactive
48 | CCN1C(=O)C2CC3(CCN(Cc4ccc(F)c(F)c4)CC3)CN2C1=O (configuration not stated) | inconclusive: 79.4 µM [inhibitor, single point]
49 | O=C(/C=C/c1ccco1)N(Cc1ccccc1)C1CCS(=O)(=O)C1 (configuration not stated) | inconclusive: 39.8 µM [inhibitor, partial curve, poor fit]
50 | COc1ccccc1CN1CCC2(CCC(CNC(=O)c3ccccc3N(C)C)O2)CC1 (configuration not stated) | inactive
51 | COc1ccc(-n2nc(C(=O)NCC(=O)N3CCN(c4ccccc4OC)CC3)c3ccccc3c2=O)cc1OC | inconclusive: 112 µM [inhibitor, partial curve, poor fit]
52 | CC(C)(C)[C@H]1CCC(=O)N([C@H](CC#N)Cc2ccccc2)CC1 | inactive
53 | CCN(CC)CCCNc1nnc(C)c(=O)[nH]1 | inconclusive: 3.98 µM [inhibitor, full curve, poor fit]
54 | CC(NC(=O)c1ccccc1SCC(=O)N1CCCC1)c1ccc(F)cc1 (configuration not stated) | inconclusive: 44.7 µM [inhibitor, partial curve, poor fit]
55 | CC(=O)c1ccc(NC(=O)C(C)OC(=O)C2CCN(c3ccc(C(F)(F)F)cn3)CC2)cc1 (configuration not stated) | inconclusive: 100 µM [inhibitor, single point]
56 | CCOc1ccccc1NC(=O)C(=O)c1c[nH]c2c(CC)cccc12 | inconclusive: 39.8 µM [inhibitor, partial curve, poor fit]
57 | COCn1cnc(-c2ccccc2)c1-c1ccccc1 | inconclusive: 35.5 µM [inhibitor, partial curve, poor fit]
58 | Cc1ccc(S(=O)(=O)NNC(=O)NC23CC4CC(CC(C4)C2)C3)cc1 | inconclusive: 35.5 µM [inhibitor, partial curve, poor fit]
59 | S=c1[nH]nc(COc2ccccc2)n1-c1ccc(Cl)cc1 | inconclusive: 39.8 µM [inhibitor, partial curve, poor fit]
60 | c1ccc(Nc2nc(NC3CCCC3)nc3c2cnn3-c2ccccc2)cc1 | inactive
61 | O=C1C(Nc2ccccc2)=CC(c2ccccc2F)N1c1ccccc1 (configuration not stated) | inconclusive: 25.1 µM [inhibitor, partial curve, poor fit]
62 | Cc1onc(-c2ccccc2)c1C(=O)Nc1sc2c(c1C#N)CCC2 | inconclusive: 39.8 µM [inhibitor, partial curve]

Reference: PubChem BioAssay AID1671190 (National Center for Advancing Translational Sciences (NCATS), 2021)
